In the supplement of paper PMC12823440, “Inhibitors supercharge kinase turnover through native proteolytic circuits” (Nature, 2025):
Some of the results follow. Hit calls seldom repeat between salt and free forms of one compound.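 Kinases were expressed as nanoluciferase fusions in K562 cells and luminescence was read every 4 h between 2 and 18 h as percent of control, DMSO set to 100% and a positive control to 0%. A time point counts as decreased when the signal drops significantly (2 sigma). The hit call is the authors' own, does not follow from the count of time points alone, and its rule is not shown.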

By UniProt entry, the sequences of proteins in these tests, tags left out. Where a name states a change or a piece, a line headed by the entry shows the natural chain unless it says otherwise.
UniProt P07949, whole entry, looked up: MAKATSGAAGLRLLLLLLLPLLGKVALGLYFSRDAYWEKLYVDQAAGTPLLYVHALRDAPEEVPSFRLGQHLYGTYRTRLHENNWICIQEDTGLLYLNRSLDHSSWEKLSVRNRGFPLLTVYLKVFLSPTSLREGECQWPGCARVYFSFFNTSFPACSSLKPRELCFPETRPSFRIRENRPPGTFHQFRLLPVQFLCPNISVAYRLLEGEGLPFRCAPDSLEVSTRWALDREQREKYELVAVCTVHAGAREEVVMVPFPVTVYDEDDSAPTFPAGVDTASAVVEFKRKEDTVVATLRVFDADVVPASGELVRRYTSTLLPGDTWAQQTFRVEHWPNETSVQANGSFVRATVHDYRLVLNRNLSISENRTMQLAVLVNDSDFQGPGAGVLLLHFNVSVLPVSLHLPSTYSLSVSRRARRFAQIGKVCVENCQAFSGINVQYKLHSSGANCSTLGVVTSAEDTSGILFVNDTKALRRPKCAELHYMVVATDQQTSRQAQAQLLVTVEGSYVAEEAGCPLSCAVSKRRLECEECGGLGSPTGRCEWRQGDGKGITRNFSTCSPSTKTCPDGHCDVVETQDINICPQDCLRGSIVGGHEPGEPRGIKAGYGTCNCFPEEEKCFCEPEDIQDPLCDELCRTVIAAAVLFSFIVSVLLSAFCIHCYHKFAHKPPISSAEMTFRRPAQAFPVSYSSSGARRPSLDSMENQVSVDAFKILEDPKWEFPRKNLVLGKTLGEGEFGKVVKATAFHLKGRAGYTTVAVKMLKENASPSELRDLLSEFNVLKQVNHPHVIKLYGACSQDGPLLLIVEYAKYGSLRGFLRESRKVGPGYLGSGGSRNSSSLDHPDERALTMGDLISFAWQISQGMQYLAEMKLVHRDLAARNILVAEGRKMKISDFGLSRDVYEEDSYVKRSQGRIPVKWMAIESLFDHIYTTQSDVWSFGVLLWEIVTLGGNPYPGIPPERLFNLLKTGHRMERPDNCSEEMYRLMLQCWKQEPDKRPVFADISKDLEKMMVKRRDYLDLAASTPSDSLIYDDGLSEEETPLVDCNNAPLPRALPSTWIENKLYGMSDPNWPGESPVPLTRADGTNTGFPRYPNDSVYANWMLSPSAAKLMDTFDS
UniProt P07949, whole entry M918T, looked up: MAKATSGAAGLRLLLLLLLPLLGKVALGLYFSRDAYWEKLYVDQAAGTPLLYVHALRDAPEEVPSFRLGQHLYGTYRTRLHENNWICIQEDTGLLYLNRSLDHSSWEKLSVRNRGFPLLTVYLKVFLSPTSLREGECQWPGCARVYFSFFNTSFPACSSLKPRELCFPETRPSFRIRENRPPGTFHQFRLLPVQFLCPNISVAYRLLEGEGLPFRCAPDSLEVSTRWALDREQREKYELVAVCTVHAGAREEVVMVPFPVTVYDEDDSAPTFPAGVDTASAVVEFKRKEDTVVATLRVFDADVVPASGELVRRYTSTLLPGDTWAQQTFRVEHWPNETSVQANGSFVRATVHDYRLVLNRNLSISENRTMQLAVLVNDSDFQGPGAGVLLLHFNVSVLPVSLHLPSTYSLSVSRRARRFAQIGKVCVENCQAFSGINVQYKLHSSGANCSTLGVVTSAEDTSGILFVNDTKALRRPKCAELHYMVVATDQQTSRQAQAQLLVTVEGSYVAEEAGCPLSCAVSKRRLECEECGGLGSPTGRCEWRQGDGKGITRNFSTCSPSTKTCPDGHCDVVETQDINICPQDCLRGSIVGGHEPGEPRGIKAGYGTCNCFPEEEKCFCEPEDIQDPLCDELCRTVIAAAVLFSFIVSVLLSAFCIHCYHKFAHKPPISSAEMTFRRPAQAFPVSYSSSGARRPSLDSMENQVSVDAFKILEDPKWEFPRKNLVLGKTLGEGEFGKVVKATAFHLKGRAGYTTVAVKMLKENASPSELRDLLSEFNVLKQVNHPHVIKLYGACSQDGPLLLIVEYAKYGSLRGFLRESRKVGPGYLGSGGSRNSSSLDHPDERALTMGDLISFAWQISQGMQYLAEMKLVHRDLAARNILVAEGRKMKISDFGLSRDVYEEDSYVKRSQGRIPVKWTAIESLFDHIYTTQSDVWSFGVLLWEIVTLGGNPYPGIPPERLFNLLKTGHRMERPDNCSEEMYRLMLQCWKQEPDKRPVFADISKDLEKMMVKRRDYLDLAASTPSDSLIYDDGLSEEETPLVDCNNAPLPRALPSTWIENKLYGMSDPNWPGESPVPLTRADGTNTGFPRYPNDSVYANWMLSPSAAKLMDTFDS
UniProt Q9BRS2: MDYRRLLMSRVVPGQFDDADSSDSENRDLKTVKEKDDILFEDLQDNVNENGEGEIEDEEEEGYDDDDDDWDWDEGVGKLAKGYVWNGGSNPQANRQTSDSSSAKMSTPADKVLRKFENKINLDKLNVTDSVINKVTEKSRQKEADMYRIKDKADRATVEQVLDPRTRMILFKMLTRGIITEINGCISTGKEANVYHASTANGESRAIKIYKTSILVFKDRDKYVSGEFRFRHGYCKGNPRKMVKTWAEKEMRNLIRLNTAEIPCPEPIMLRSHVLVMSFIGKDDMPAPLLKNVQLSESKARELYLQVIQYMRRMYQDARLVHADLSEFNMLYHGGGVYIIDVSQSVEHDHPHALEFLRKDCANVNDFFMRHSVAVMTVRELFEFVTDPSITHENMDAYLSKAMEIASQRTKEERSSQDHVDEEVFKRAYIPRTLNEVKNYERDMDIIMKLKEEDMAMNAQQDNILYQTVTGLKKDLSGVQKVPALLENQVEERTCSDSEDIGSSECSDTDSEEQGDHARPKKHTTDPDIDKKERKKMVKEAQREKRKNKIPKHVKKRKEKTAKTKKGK
UniProt Q13546: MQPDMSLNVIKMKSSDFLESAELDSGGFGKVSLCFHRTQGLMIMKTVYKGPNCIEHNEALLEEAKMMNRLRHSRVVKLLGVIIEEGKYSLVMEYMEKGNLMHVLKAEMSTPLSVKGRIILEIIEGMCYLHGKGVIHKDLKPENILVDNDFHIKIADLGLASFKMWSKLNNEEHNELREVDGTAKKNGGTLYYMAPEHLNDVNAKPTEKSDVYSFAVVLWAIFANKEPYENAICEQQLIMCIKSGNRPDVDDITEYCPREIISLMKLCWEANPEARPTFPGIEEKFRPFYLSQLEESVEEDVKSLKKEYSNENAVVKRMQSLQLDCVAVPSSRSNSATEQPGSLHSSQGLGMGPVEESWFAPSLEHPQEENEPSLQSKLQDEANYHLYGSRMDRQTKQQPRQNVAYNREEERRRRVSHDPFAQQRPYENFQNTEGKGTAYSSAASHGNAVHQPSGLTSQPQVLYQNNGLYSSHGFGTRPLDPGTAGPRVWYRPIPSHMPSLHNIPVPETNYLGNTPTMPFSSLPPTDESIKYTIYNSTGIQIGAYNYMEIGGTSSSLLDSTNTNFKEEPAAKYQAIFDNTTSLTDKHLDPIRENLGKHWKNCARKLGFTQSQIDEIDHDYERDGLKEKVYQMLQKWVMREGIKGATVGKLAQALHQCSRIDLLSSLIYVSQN
UniProt Q01974, whole entry: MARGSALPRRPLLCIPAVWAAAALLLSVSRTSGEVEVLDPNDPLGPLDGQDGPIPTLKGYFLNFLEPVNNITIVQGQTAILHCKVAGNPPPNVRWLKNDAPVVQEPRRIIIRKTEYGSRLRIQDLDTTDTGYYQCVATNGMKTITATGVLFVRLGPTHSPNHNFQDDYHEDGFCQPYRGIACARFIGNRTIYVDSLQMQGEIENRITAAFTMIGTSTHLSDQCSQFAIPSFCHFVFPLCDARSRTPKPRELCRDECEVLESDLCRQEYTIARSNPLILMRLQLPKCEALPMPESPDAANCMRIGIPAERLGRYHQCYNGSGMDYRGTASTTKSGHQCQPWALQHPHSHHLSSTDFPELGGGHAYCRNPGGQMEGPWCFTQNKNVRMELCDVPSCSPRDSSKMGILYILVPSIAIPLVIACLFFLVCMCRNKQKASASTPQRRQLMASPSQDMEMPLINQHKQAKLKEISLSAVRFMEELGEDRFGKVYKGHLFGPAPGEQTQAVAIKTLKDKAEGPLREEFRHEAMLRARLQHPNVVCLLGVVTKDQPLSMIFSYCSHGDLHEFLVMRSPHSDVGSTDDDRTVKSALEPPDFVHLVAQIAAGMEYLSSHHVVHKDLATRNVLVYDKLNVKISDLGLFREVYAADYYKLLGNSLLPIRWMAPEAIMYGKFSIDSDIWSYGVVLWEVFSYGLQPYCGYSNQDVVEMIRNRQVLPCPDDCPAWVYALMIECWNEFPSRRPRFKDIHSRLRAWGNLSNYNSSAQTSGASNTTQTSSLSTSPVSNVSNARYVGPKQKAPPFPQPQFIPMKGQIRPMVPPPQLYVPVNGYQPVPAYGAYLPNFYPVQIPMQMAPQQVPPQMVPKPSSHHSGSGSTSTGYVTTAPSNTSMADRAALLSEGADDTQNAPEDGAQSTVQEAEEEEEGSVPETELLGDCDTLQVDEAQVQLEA
UniProt Q15418, whole entry: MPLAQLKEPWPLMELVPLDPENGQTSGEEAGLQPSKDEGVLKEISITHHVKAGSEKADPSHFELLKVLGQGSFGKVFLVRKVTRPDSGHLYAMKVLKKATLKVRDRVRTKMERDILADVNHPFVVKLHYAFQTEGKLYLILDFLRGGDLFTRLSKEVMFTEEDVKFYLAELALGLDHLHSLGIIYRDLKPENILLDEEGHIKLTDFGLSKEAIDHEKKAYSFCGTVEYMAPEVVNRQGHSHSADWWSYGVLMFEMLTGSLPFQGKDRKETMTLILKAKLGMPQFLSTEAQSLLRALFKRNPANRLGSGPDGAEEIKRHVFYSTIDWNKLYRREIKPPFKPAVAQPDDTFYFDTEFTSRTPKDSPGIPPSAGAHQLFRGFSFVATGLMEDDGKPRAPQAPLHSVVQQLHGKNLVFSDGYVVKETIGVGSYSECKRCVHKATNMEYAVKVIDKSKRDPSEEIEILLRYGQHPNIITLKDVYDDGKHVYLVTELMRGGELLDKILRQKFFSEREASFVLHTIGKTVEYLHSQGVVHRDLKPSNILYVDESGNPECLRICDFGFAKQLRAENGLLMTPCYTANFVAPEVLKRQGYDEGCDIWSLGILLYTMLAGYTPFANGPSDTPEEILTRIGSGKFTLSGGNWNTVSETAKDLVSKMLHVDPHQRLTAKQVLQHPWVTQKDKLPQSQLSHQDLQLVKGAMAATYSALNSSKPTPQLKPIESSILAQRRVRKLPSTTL
UniProt Q9NYA1, whole entry: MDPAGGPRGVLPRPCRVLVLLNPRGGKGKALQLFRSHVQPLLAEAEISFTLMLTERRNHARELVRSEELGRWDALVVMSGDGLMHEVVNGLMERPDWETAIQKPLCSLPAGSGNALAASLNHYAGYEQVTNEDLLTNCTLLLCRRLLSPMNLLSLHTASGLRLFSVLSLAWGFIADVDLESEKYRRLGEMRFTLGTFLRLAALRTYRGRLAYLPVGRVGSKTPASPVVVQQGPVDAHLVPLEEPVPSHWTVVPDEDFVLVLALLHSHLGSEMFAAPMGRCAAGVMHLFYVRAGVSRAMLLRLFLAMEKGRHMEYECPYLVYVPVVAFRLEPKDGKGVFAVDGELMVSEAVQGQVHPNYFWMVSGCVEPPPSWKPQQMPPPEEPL
UniProt Q9Y6E0: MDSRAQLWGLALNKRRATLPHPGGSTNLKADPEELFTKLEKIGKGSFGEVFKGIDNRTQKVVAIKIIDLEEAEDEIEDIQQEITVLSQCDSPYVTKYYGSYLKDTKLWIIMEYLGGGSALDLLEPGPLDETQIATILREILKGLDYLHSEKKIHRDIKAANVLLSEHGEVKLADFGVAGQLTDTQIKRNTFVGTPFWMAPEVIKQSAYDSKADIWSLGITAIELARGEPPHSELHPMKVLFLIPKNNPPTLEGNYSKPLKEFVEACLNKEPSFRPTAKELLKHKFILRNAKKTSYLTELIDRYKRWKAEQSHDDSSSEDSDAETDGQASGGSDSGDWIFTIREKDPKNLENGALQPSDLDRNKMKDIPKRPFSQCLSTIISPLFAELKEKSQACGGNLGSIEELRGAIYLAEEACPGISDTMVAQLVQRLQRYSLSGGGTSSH

What was measured:
Assay in all cases: kinase-Nluc reporter destabilization hit call (1 = scored as downregulated) (binary); higher = compound decreases kinase abundance
Conditions in all cases: K562; 2-18 h
RET = RET (UniProt P07949)
[1] = target: RET_M918T (clone: RET_mut) (UniProt P07949)
RIOK1 = RIOK1 (UniProt Q9BRS2)
RIPK1 = RIPK1 (UniProt Q13546)
RIPK2 = RIPK2 (UniProt O43353)
ROR2 = ROR2 (UniProt Q01974)
RPS6KA1 = RPS6KA1 (UniProt Q15418)
SPHK1 = SPHK1 (UniProt Q9NYA1)
SRC = SRC (UniProt P12931)
STK24 = STK24 (UniProt Q9Y6E0)

Measured: kinase-Nluc reporter destabilization hit call

CC(C)CN[C@H]1CS(=O)(=O)C[C@@H]1S(=O)(=O)c1ccc(Cl)cc1 (10 µM)
inactive: RET 0 | [1] 0 | RIOK1 = 0 | RIPK1 = 0 | RIPK2 = 0 | ROR2 = 0 | RPS6KA1 = 0 | SPHK1 = 0 | SRC 0 | STK24 = 0

Cn1cc(Nc2nccc(N3C[C@H]4CC[C@@H](C3)N4C(=O)[C@@H]3CC3(F)F)n2)cn1 (10 µM)
inactive: RET 0 | [1] 0 | RIOK1 = 0 | RIPK1 = 0 | RIPK2 = 0 | ROR2 = 0 | RPS6KA1 = 0 | SPHK1 = 0 | SRC 0 | STK24 = 0

O=C1NC(=O)C(=Cc2ccc(-c3ccc(F)cc3)o2)S1 (stereo in doubt) (10 µM)
inactive: RET 0 | [1] 0 | RIOK1 = 0 | RIPK1 = 0 | RIPK2 = 0 | ROR2 = 0 | RPS6KA1 = 0 | SPHK1 = 0 | SRC 0 | STK24 = 0

COc1ccc2c(c1O)OC(C)(C)c1c-2ccc2c1C(=O)N(c1ccc(C(=O)c3ccccc3)cc1)C2=O [Ampkinone] (10 µM)
inactive: RET 0 | [1] 0 | RIOK1 = 0 | RIPK1 = 0 | RIPK2 = 0 | ROR2 = 0 | RPS6KA1 = 0 | SPHK1 = 0 | SRC 0 | STK24 = 0

O=C(/C=C/c1ccc(O)c(O)c1)OC1CC(OC(=O)/C=C/c2ccc(O)c(O)c2)(C(=O)O)CC(O)C1O (stereo not given) [1,3-Dicaffeoylquinic acid] (10 µM)
inactive: RET 0 | [1] 0 | RIOK1 = 0 | RIPK1 = 0 | RIPK2 = 0 | ROR2 = 0 | RPS6KA1 = 0 | SPHK1 = 0 | SRC 0 | STK24 = 0

CCN1CCN(Cc2ccc(Nc3ncc(F)c(-c4cc(F)c5nc(CO)n(C(C)C)c5c4)n3)nc2)CC1 [Abemaciclib metabolite M20] (2 µM)
inactive: RET 0 | [1] 0 | RIOK1 = 0 | RIPK1 = 0 | RIPK2 = 0 | ROR2 = 0 | RPS6KA1 = 0 | SPHK1 = 0 | SRC 0 | STK24 = 0

Cc1c(CN2CCN(S(C)(=O)=O)CC2)sc2c(N3CCOCC3)nc(-c3cnc(N)nc3)nc12 (2.5 µM)
inactive: RET 0 | [1] 0 | RIOK1 = 0 | RIPK1 = 0 | RIPK2 = 0 | ROR2 = 0 | RPS6KA1 = 0 | SPHK1 = 0 | SRC 0 | STK24 = 0

CC(=NNC(=O)c1ccc(C)c(Br)c1)c1ccc(O)cc1O [mTOR inhibitor-1] (2.5 µM)
inactive: RET 0 | [1] 0 | RIOK1 = 0 | RIPK1 = 0 | RIPK2 = 0 | ROR2 = 0 | RPS6KA1 = 0 | SPHK1 = 0 | SRC 0 | STK24 = 0

CC(=O)N1CCN(c2cc(-c3cc(C(F)(F)F)c4c(N)ncnn34)ccc2C#N)C(=O)C1(C)C (10 µM)
inactive: RET 0 | [1] 0 | RIOK1 = 0 | RIPK1 = 0 | RIPK2 = 0 | ROR2 = 0 | RPS6KA1 = 0 | SPHK1 = 0 | SRC 0 | STK24 = 0

O=c1oc2cc(O)ccc2c2ccccc12 [Urolithin B] (10 µM)
inactive: RET 0 | [1] 0 | RIOK1 = 0 | RIPK1 = 0 | RIPK2 = 0 | ROR2 = 0 | RPS6KA1 = 0 | SPHK1 = 0 | SRC 0 | STK24 = 0

O=C(Nc1ccc(F)cc1F)[C@H](NC(=S)Nc1cc(C(F)(F)F)cc(C(F)(F)F)c1)c1ccccc1 (2.5 µM)
inactive: RET 0 | [1] 0 | RIOK1 = 0 | RIPK1 = 0 | RIPK2 = 0 | ROR2 = 0 | RPS6KA1 = 0 | SPHK1 = 0 | SRC 0 | STK24 = 0

CC(C)(NS(=O)(=O)c1ccc2c(Cl)cnc(N=C(N)N)c2c1)C(=O)O (10 µM)
inactive: RET 0 | [1] 0 | RIOK1 = 0 | RIPK1 = 0 | RIPK2 = 0 | ROR2 = 0 | RPS6KA1 = 0 | SPHK1 = 0 | SRC 0 | STK24 = 0

O=C(Nc1nc2ccccc2[nH]1)c1cccc(-n2cccc2)c1 (10 µM)
inactive: RET 0 | [1] 0 | RIOK1 = 0 | RIPK1 = 0 | RIPK2 = 0 | ROR2 = 0 | RPS6KA1 = 0 | SPHK1 = 0 | SRC 0 | STK24 = 0

Nc1ncnc2c1c(-c1ccc(Oc3ccccc3)cc1)nn2C1CCCNC1 (racemic) (2.5 µM)
inactive: RET 0 | [1] 0 | RIOK1 = 0 | RIPK1 = 0 | RIPK2 = 0 | ROR2 = 0 | RPS6KA1 = 0 | SPHK1 = 0 | SRC 0 | STK24 = 0

COc1ccc([C@H]2c3[nH]c4ccc(Cl)cc4c3CCN2C(=O)Oc2ccc(Cl)cc2)cc1 (2.5 µM)
inactive: RET 0 | [1] 0 | RIOK1 = 0 | RIPK1 = 0 | RIPK2 = 0 | ROR2 = 0 | RPS6KA1 = 0 | SPHK1 = 0 | SRC 0 | STK24 = 0

COc1cc2c[n+](C)c3c4cc5c(cc4ccc3c2cc1OC)OCO5 [Nitidine (chloride)] (2 µM)
inactive: RET 0 | [1] 0 | RIOK1 = 0 | RIPK1 = 0 | RIPK2 = 0 | ROR2 = 0 | RPS6KA1 = 0 | SPHK1 = 0 | SRC 0 | STK24 = 0

CC1CN(C(=O)Nc2ccc(Cl)c(Cl)c2)C(=Nc2ccc(F)cc2)S1 (stereo not given) (10 µM)
inactive: RET 0 | [1] 0 | RIOK1 = 0 | RIPK1 = 0 | RIPK2 = 0 | ROR2 = 0 | RPS6KA1 = 0 | SPHK1 = 0 | SRC 0 | STK24 = 0

C=CC(=O)Nc1ccc(CN(C(=O)Nc2c(Cl)c(OC)cc(OC)c2Cl)c2cc(Nc3ccc(N4CCN(C)CC4)cc3)ncn2)cc1 (10 µM)
inactive: RET 0 | [1] 0 | RIOK1 = 0 | RIPK1 = 0 | RIPK2 = 0 | ROR2 = 0 | RPS6KA1 = 0 | SPHK1 = 0 | SRC 0 | STK24 = 0

COc1cc2ncnc(Nc3cccc(Cl)c3)c2cc1OC (10 µM)
inactive: RET 0 | [1] 0 | RIOK1 = 0 | RIPK1 = 0 | RIPK2 = 0 | ROR2 = 0 | RPS6KA1 = 0 | SPHK1 = 0 | SRC 0 | STK24 = 0

CC(C)=CC[C@H](O)C1=CC(=O)c2c(O)ccc(O)c2C1=O [(-)-Alkannin] (2.5 µM)
inactive: RET 0 | [1] 0 | RIOK1 = 0 | RIPK1 = 0 | RIPK2 = 0 | ROR2 = 0 | RPS6KA1 = 0 | SPHK1 = 0 | SRC 0 | STK24 = 0

O=C(NCCCNC(=O)Nc1cccc(C2=NCCN2)c1)Nc1cccc(C2=NCCN2)c1 [p32 Inhibitor M36] (10 µM)
inactive: RET 0 | [1] 0 | RIOK1 = 0 | RIPK1 = 0 | RIPK2 = 0 | ROR2 = 0 | RPS6KA1 = 0 | SPHK1 = 0 | SRC 0 | STK24 = 0

COc1cc(N2CCN(C)CC2)ccc1Nc1ncc2c(n1)N(C1CCC1)C(=O)N(c1c(C)cccc1C)C2 (2.5 µM)
inactive: RET 0 | [1] 0 | RIOK1 = 0 | RIPK1 = 0 | RIPK2 = 0 | ROR2 = 0 | RPS6KA1 = 0 | SPHK1 = 0 | SRC 0 | STK24 = 0

Cc1ccc(NC(=S)NNc2c([N+](=O)[O-])cc(C(F)(F)F)cc2[N+](=O)[O-])cc1Cl (10 µM)
inactive: RET 0 | [1] 0 | RIOK1 = 0 | RIPK1 = 0 | RIPK2 = 0 | ROR2 = 0 | RPS6KA1 = 0 | SPHK1 = 0 | SRC 0 | STK24 = 0

C[C@@H](c1ccc2nccn2c1)n1nnc2ncc(-c3cnn(C)c3)nc21 [Savolitinib] (10 µM)
inactive: RET 0 | [1] 0 | RIOK1 = 0 | RIPK1 = 0 | RIPK2 = 0 | ROR2 = 0 | RPS6KA1 = 0 | SPHK1 = 0 | SRC 0 | STK24 = 0

Random excerpt: two compounds from above.
COc1cc(N2CCN(C)CC2)ccc1Nc1ncc2c(n1)N(C1CCC1)C(=O)N(c1c(C)cccc1C)C2 (2.5 µM)
inactive: RET 0 | [1] 0 | RIOK1 = 0 | RIPK1 = 0 | RIPK2 = 0 | ROR2 = 0 | RPS6KA1 = 0 | SPHK1 = 0 | SRC 0 | STK24 = 0

Cc1ccc(NC(=S)NNc2c([N+](=O)[O-])cc(C(F)(F)F)cc2[N+](=O)[O-])cc1Cl (10 µM)
inactive: RET 0 | [1] 0 | RIOK1 = 0 | RIPK1 = 0 | RIPK2 = 0 | ROR2 = 0 | RPS6KA1 = 0 | SPHK1 = 0 | SRC 0 | STK24 = 0

The results go on:

CN1CCN(c2ccc(Nc3ncc4nc(Nc5ccccc5)n([C@@H]5CCN(S(=O)(=O)C6CC6)C5)c4n3)cc2)CC1 (2.5 µM)
inactive: RET 0 | [1] 0 | RIOK1 = 0 | RIPK1 = 0 | RIPK2 = 0 | ROR2 = 0 | RPS6KA1 = 0 | SPHK1 = 0 | SRC 0 | STK24 = 0

Cc1ccc(-c2c(C(=O)CCl)n(CCCO)c3ncnc(N)c23)cc1 (10 µM)
inactive: RET 0 | [1] 0 | RIOK1 = 0 | RIPK1 = 0 | RIPK2 = 0 | ROR2 = 0 | RPS6KA1 = 0 | SPHK1 = 0 | SRC 0 | STK24 = 0

CCOc1ccc(C(=O)Nc2ncc([N+](=O)[O-])s2)cc1 (10 µM)
inactive: RET 0 | [1] 0 | RIOK1 = 0 | RIPK1 = 0 | RIPK2 = 0 | ROR2 = 0 | RPS6KA1 = 0 | SPHK1 = 0 | SRC 0 | STK24 = 0

O=C(O)c1cc(O)ccc1O [2,5-Dihydroxybenzoic acid] (10 µM)
inactive: RET 0 | [1] 0 | RIOK1 = 0 | RIPK1 = 0 | RIPK2 = 0 | ROR2 = 0 | RPS6KA1 = 0 | SPHK1 = 0 | SRC 0 | STK24 = 0

Cc1cc(O)c(C(C)C)cc1N=O [Poloxime] (10 µM)
inactive: RET 0 | [1] 0 | RIOK1 = 0 | RIPK1 = 0 | RIPK2 = 0 | ROR2 = 0 | RPS6KA1 = 0 | SPHK1 = 0 | SRC 0 | STK24 = 0
